Experimental data reported in US9932617B2, “Ketose 3-epimerase produced by arthrobacter globiformis” (priority 2013, dated 2018).
Some results were stated once for a whole list of compounds, not compound by compound. At least one compound was matched to its structure with a doubt left.

Sequences of proteins named here, by UniProt entry; tags and fusion partners are left off. A change or cut given only in a name is not applied to a line headed by its entry.
UniProt A0A1L7NQ96: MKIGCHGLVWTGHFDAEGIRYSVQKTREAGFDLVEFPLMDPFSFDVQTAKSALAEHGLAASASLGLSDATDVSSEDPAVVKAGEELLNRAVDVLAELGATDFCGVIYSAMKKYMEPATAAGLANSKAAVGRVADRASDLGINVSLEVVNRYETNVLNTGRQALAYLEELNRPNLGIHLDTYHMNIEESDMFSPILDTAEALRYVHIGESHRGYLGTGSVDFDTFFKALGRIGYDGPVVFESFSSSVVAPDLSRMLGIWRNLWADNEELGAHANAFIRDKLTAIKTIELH

Biological target: ketose 3-epimerase (Arthrobacter globiformis, UniProt A0A1L7NQ96)
Assay: Effects of metal ions on EDTA treated purified enzyme
Assay type: biochemical, Arthrobacter globiformis M30
Details: 1 mM metal ion
Description: The enzyme was examined for metal ion requirement. The purified enzyme was dialyzed for 2 hours against 10 mM Tris-HCl containing 1 mM EDTA (pH 7.5). The enzyme was further dialyzed against an EDTA-free 10 mM Tris-HCl buffer (pH 7.5) for a whole day and night to obtain an EDTA treated enzyme. This enzyme was used to measure the effect of metal ions on enzyme activity, using 1 mM of various metal ions, and D-psicose as the substrate. The results are presented in Table 13, in which the activity with addition of each type of metal ions is shown as the relative value with respect to the activity of the enzyme without metal ions which is taken as 100.

Structure (SMILES): [Mg+2] [Mg^2+, magnesium ions]
- activity increase in the presence of metal ions: ≥ 1.3 fold
